Results published in publication PMC3549492.

Molecular target: porcine MTs (microtubules) (porcine)
Assay: cross-linking; BS3 (1 mM, 100-fold excess); 10 μM each of Dcx, Kif1a and MTs; 4 mM ATP; BRB80 pH 6.9; room temperature; SDS-PAGE, silver staining, protein identification by mass spectrometry; both purified

- binding: binds
B1: overexpressed and purified full-length human Dcx (protein, UniProt O43602 1-365)
chain: MELDFGHFDERDKTSRNMRGSRMNGLPSPTHSAHCSFYRTRTLQALSNEKKAKKVRFYRNGDRYFKGIVYAVSSDRFRSFDALLADLTRSLSDNINLPQGVRYIYTIDGSRKIGSMDELEEGESYVCSSDNFFKKVEYTKNVNPNWSVNVKTSANMKAPQSLASSNSAQARENKDFVRPKLVTIIRSGVKPRKAVRVLLNKKTAHSFEQVLTDITEAIKLETGVVKKLYTLDGKQVTCLHDFFGDDDVFIACGPEKFRYAQDDFSLDENECRVMKGNPSATAGPKASPTPQKTSAKSPGPMRRSKSPADSGNDQDANGTSSSQLSTPKSKQSPISTPTSPGSLRKHKDLYLPLSLDDSDSLGDSM

- binding: binds
B2: N-terminal HaloTag human KIF1A (amino acids 1-361) fusion protein (domain or fragment, UniProt Q12756 1-361)
chain: MAGASVKVAVRVRPFNSREMSRDSKCIIQMSGSTTTIVNPKQPKETPKSFSFDYSYWSHTSPEDINYASQKQVYRDIGEEMLQHAFEGYNVCIFAYGQTGAGKSYTMMGKQEKDQQGIIPQLCEDLFSRINDTTNDNMSYSVEVSYMEIYCERVRDLLNPKNKGNLRVREHPLLGPYVEDLSKLAVTSYNDIQDLMDSGNKARTVAATNMNETSSRSHAVFNIIFTQKRHDAETNITTEKVSKISLVDLAGSERADSTGAKGTRLKEGANINKSLTTLGKVISALAEMDSGPNKNKKKKKTDFIPYRDSVLTWLLRENLGGNSRTAMVAALSPADINYDETLSTLRYADRAKQIRCNAVIN

Results are given in words; binding and its absence hold for the method and conditions named. Binding calls can cover weak binding; strength is not graded here. Sequences can lack the tags named with a protein. Each block holds one binder with its values, some of them ahead of it.
